# Screening data, single-dose tests

Source: ChEMBL document CHEMBL3988442, “University of Dundee, Small-Polar-MMV Screening Library” (2021).

Values are the deposited “Percent Effect”, in %.
How 0% and 100% were set is not recorded. Most values in the screen are low, and negative values occur.
The compounds are a random part of those screened.

T. brucei: 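Whole-parasite assay of Trypanosoma brucei over 72 hours; the read-out is not stated. Tested at 30 µM. The record gives no direction; compounds that gave an IC50 in retests scored well above the rest, so higher reads as stronger inhibition. Values scatter widely below zero; nearly all retest evidence comes from the higher of the two concentrations used. Size under these conditions: about 64,000 compounds, about 940 of them at 50% or above in at least one test.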
Toxoplasma: 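Assay of Toxoplasma gondii numbers, read through their beta-galactosidase reporter with a colour substrate. Tested at 10 µM. The record gives no direction; the compounds picked for IC50 retests had high values, so higher reads as fewer parasites. Size under these conditions: about 67,000 compounds, about 260 of them at 50% or above in at least one test.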

{"compound": "O=C(Nc1ccccc1)C1=NOC2(CCCN(C(=O)C3CCCC3)C2)C1", "stereo": "centres unmarked", "T. brucei": -31.72, "Toxoplasma": 18.34}
{"compound": "CC(=O)N[C@@H]1CN(C2CCN(c3cccc(Cl)c3)CC2)C[C@H]1C(C)C", "T. brucei": 30.6, "Toxoplasma": 4.179}
{"compound": "CC(C)NC(=O)N1C[C@@H](F)[C@@H](OCc2nc3ccccc3o2)C1", "T. brucei": -13.66, "Toxoplasma": -3.173}
{"compound": "O=C(CCc1ccsc1)N1CCCC(n2cncn2)C1", "stereo": "centres unmarked", "T. brucei": -4.124, "Toxoplasma": 4.682}
{"compound": "Cc1noc(C)c1-c1cccc(C2CCCNC2)n1", "stereo": "centres unmarked", "T. brucei": 8.162, "Toxoplasma": -2.723}
{"compound": "CC(=O)c1c(F)cccc1NCC(O)C1CC1", "stereo": "centres unmarked", "T. brucei": -23.98, "Toxoplasma": 3.2}
{"compound": "O=C(NCCNc1cnccn1)N1CC=C(c2ccccc2)CC1", "T. brucei": -32.55, "Toxoplasma": -5.472}
{"compound": "CC(=O)N(C)CCc1nc(-c2cc(C(N)=O)co2)cs1", "T. brucei": 3.767, "Toxoplasma": -5.664}
{"compound": "Cc1cc(N2CCN(C(=O)c3cc(Cl)c[nH]3)CC2)nc(N)n1", "T. brucei": 109.2, "Toxoplasma": 3.826}
{"compound": "N#Cc1c(N)nc2c(c1-c1cnc(N3CCCC3)nc1)COCC2", "T. brucei": -18.8}
{"compound": "[H][C@]1([C@H](O)c2ccc(NC(=O)c3ccco3)cc2)COCC(=O)N1", "T. brucei": -24.54, "Toxoplasma": -2.206}
{"compound": "COc1ccc(C(=O)NS(=O)(=O)c2cncc(Br)c2)cc1", "T. brucei": -19.77, "Toxoplasma": -0.1341}
{"compound": "CCN(CC)C(=O)c1nnsc1-c1ccc(C)cc1", "T. brucei": -5.431, "Toxoplasma": 16.83}
{"compound": "O=C(O)C(F)(F)F.O=C(O)C(F)(F)F.O=c1ccc2c(n1Cc1cccnc1)CCN(Cc1ccoc1)CC2", "T. brucei": -28.67, "Toxoplasma": -6.273}
{"compound": "Cc1cnc(N2CCn3c(CN4CCOCC4)nnc3C2)nc1.O=C(O)C(F)(F)F", "T. brucei": -1.01, "Toxoplasma": -5.681}
{"compound": "Cc1ccsc1CN1CCc2nc3ccsc3c(=O)n2CC1.Cl", "T. brucei": 15.75, "Toxoplasma": -5.036}
{"compound": "CC(C)N1CC(C(=O)NCCOc2ccc3c(c2)OCO3)CC1=O", "stereo": "centres unmarked", "T. brucei": 20.36, "Toxoplasma": -2.448}
{"compound": "C[C@@H]1CN(C(=O)CCc2nncn2C)C[C@@]1(O)C1CCC1", "T. brucei": -29.62, "Toxoplasma": 10.78}
{"compound": "COc1ccnc(NCC2CN(C3CC3)CCO2)n1", "stereo": "centres unmarked", "T. brucei": -47.42, "Toxoplasma": 4.606}
{"compound": "COCc1nc(C2CC2)nn1-c1ccccc1Cl", "T. brucei": -3.407, "Toxoplasma": -3.061}
{"compound": "Cc1cccc(C)c1Nc1noc2c1CN(C(=O)c1cn(C)cn1)CC2", "T. brucei": 3.99, "Toxoplasma": -2.219}
{"compound": "CN(C)C(=O)NCC(=O)N(C)Cc1cc(-c2ccccc2)no1", "T. brucei": -12.28, "Toxoplasma": -2.497}
{"compound": "Cc1cc(NS(=O)(=O)c2cnc3onc(C)c3c2)no1", "T. brucei": -5.213, "Toxoplasma": 2.31}
{"compound": "CNCc1ccc(Oc2cncc(C)n2)cc1", "Toxoplasma": 23.12}
{"compound": "Cl.[H][C@@]12C[C@@H](C(=O)NC(C)C)O[C@]1([H])CCN2", "T. brucei": -72.59, "Toxoplasma": 13.18}
{"compound": "Cc1cccc(CN(Cn2nc(C)c3c(C)onc3c2=O)C2CC2)c1", "T. brucei": -10.01, "Toxoplasma": 12.33}
{"compound": "Cc1cnc(Nc2nccnc2C2CCN(C)CC2)s1", "T. brucei": -9.109, "Toxoplasma": 3.605}
{"compound": "CCCC1CCCN(C(=O)Nc2ccnc(C(=O)N(C)C)c2)CC1", "stereo": "centres unmarked", "T. brucei": 9.686, "Toxoplasma": -23.09}
{"compound": "CCN(CC)c1ncnc2c1CCN(CC1CCOCC1)CC2.O=C(O)C(F)(F)F", "T. brucei": -24.67, "Toxoplasma": 7.69}
{"compound": "CNC(=O)c1cc2c(nc1NCC(C)C)CCN(CC1CC1)CC2.O=C(O)C(F)(F)F.O=C(O)C(F)(F)F", "T. brucei": -94.34, "Toxoplasma": 3.82}
{"compound": "O=C(CCn1ccc2ccccc21)N1CCN(Cc2cccnc2)CC1", "T. brucei": 6.002, "Toxoplasma": 0.9135}
{"compound": "CCS(=O)(=O)NCCNCc1ccc(Cl)c2cccnc12", "T. brucei": -0.5419, "Toxoplasma": -0.9201}
{"compound": "CC(=O)N1CC(=O)N(c2ccccc2)CC12CCN(Cc1cccs1)C2.O=C(O)C(F)(F)F", "stereo": "centres unmarked", "T. brucei": 0.1446, "Toxoplasma": -1.175}
{"compound": "Cc1noc(C)c1C(=O)N1CCOC2(COCCN(C(C)C)C2)C1.O=C(O)C(F)(F)F", "stereo": "centres unmarked", "T. brucei": -72.54, "Toxoplasma": -14.03}
{"compound": "O=C(c1cscn1)N1CCC2(CC1)CN(c1ccccn1)CCO2", "T. brucei": 31.95, "Toxoplasma": -4.294}
{"compound": "CCCn1cc(Cl)c(C(=O)N2C[C@@H](O)[C@H](Oc3ccccc3)C2)n1", "T. brucei": -2.215, "Toxoplasma": 1.908}
{"compound": "Cc1cccc(C(C(=O)N2CC(c3ccncc3)C2)N(C)C)c1", "stereo": "centres unmarked", "T. brucei": -3.113, "Toxoplasma": -2.071}
{"compound": "CN1CCOC(C)(C(=O)N2CCSCC2)C1", "stereo": "centres unmarked", "T. brucei": -12.2, "Toxoplasma": 5.345}
{"compound": "Cn1c(C2CC2)nc2c1CCN(CC(=O)Nc1ccncc1)C2", "T. brucei": -14.58, "Toxoplasma": -40.9}
{"compound": "CC(C)n1c(C2CCCN(Cc3ccnn3C)C2)nc2ccccc21", "stereo": "centres unmarked", "T. brucei": 36.4, "Toxoplasma": 5.602}

For reference, 3 entries once more:

Cl.[H][C@@]12C[C@@H](C(=O)NC(C)C)O[C@]1([H])CCN2 gave T. brucei: -72.59%; Toxoplasma: 13.18%.
CC(=O)N[C@@H]1CN(C2CCN(c3cccc(Cl)c3)CC2)C[C@H]1C(C)C gave T. brucei: 30.6%; Toxoplasma: 4.179%.
Cc1ccsc1CN1CCc2nc3ccsc3c(=O)n2CC1.Cl gave T. brucei: 15.75%; Toxoplasma: -5.036%.